Source: PMC12512431
No constants are given. Whether binding was seen depends on the method and setting. In cells and extracts the contact can be indirect. Some results given as binding are weak or reduced against the parent protein; the word gives no strength. Tags and fused reporters may be left off the sequences shown.

T1: Glucose transporter 9 (GLUT9), Flag-tagged (UniProt Q9NRM0)
T1 sequence: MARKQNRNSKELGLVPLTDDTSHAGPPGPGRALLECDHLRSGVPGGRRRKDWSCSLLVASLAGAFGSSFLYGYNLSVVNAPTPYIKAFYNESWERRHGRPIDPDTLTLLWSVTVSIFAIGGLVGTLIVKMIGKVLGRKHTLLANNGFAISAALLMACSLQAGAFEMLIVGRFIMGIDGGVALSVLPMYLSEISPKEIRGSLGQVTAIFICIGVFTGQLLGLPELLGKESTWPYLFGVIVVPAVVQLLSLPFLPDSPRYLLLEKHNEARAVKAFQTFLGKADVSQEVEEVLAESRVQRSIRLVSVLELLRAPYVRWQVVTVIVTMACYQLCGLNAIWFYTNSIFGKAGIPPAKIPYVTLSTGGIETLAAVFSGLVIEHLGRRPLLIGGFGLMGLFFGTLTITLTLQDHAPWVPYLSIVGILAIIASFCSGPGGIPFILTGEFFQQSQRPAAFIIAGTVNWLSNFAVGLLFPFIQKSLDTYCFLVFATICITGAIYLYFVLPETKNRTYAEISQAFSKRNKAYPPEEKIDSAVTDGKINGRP

T2: Thioredoxin Interacting Protein (TXNIP), HA-tagged (UniProt Q9H3M7)
T2 sequence: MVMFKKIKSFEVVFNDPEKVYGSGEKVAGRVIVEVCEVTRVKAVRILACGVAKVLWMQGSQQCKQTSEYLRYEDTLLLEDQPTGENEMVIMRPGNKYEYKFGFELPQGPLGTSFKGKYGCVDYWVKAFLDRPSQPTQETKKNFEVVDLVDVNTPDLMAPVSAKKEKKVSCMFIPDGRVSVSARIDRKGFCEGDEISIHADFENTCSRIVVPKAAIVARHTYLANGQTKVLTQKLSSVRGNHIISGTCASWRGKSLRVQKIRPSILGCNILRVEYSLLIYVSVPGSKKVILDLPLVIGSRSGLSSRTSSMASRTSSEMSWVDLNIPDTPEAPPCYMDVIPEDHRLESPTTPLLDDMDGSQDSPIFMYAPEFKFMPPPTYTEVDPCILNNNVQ


Experiments:
[1] = target: T1, Glucose transporter 9 (GLUT9), Flag-tagged; experiment: co-IP; lysate of transfected HEK293 / HEK 293 T cells overexpressing TXNIP-HA and GLUT9-Flag; IP with anti-HA or anti-Flag antibody (rabbit IgG as control), Protein A/G magnetic beads, 4 °C overnight, washed with IP buffer, Western blot
[2] = target: T2, Thioredoxin Interacting Protein (TXNIP), HA-tagged; experiment: as above

binding [1]	binding [2]	Binder
binds	–	Thioredoxin Interacting Protein (TXNIP), HA-tagged (protein, UniProt Q9H3M7 1-391) MVMFKKIKSFEVVFNDPEKVYGSGEKVAGRVIVEVCEVTRVKAVRILACGVAKVLWMQGSQQCKQTSEYLRYEDTLLLEDQPTGENEMVIMRPGNKYEYKFGFELPQGPLGTSFKGKYGCVDYWVKAFLDRPSQPTQETKKNFEVVDLVDVNTPDLMAPVSAKKEKKVSCMFIPDGRVSVSARIDRKGFCEGDEISIHADFENTCSRIVVPKAAIVARHTYLANGQTKVLTQKLSSVRGNHIISGTCASWRGKSLRVQKIRPSILGCNILRVEYSLLIYVSVPGSKKVILDLPLVIGSRSGLSSRTSSMASRTSSEMSWVDLNIPDTPEAPPCYMDVIPEDHRLESPTTPLLDDMDGSQDSPIFMYAPEFKFMPPPTYTEVDPCILNNNVQ
–	binds	Glucose transporter 9 (GLUT9), Flag-tagged (protein, UniProt Q9NRM0 1-540) MARKQNRNSKELGLVPLTDDTSHAGPPGPGRALLECDHLRSGVPGGRRRKDWSCSLLVASLAGAFGSSFLYGYNLSVVNAPTPYIKAFYNESWERRHGRPIDPDTLTLLWSVTVSIFAIGGLVGTLIVKMIGKVLGRKHTLLANNGFAISAALLMACSLQAGAFEMLIVGRFIMGIDGGVALSVLPMYLSEISPKEIRGSLGQVTAIFICIGVFTGQLLGLPELLGKESTWPYLFGVIVVPAVVQLLSLPFLPDSPRYLLLEKHNEARAVKAFQTFLGKADVSQEVEEVLAESRVQRSIRLVSVLELLRAPYVRWQVVTVIVTMACYQLCGLNAIWFYTNSIFGKAGIPPAKIPYVTLSTGGIETLAAVFSGLVIEHLGRRPLLIGGFGLMGLFFGTLTITLTLQDHAPWVPYLSIVGILAIIASFCSGPGGIPFILTGEFFQQSQRPAAFIIAGTVNWLSNFAVGLLFPFIQKSLDTYCFLVFATICITGAIYLYFVLPETKNRTYAEISQAFSKRNKAYPPEEKIDSAVTDGKINGRP
